PubChem BioAssay AID1259289 | Sanger Institute – 2017

- Screen: 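Kinases that bowel cancer cells need to survive, with or without BYL719, cetuximab, trametinib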 (primary screen)
- System: human LS513 colorectal cancer cells
- Reagent: siRNA pool against human genes
- Challenge: anchor drug BYL719 at 1 µM, cetuximab at 5 µg/ml or trametinib at 10 nM, or DMSO vehicle alone; exposure time not given
- Measured: 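Cell survival as a fraction of the non-targeting pool, replicate means; robust z-score for silencing alone under DMSO; synergy score for each of BYL719, cetuximab and trametinib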
- Direction: robust z-score, siRNA alone (DMSO): higher = more viable cells; strongly negative means essential; viability with DMSO vs control: higher = more viable cells
- Hit rule: 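a gene counts as active if its DMSO-only robust z-score falls under -3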
- Calls: active = essential (knock-down alone); inactive = not essential
Here is a random part of 794 deposited reagents. 16 of all reagents (2%) were called active. 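Active marks cell loss from silencing alone; drug synergy shows only in the synergy scores, not the calls.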 Entries without a mark were called inactive. Viability is capped at 1. Not all columns of the deposit are shown. The record does not give: the amount of reagent, the time to read-out.

| gene | robust z-score, siRNA alone (DMSO) | viability with DMSO vs control (fraction of control) |
| --- | --- | --- |
| TTBK1 (tau tubulin kinase 1) | -0.754 | 0.813 |
| MELK (maternal embryonic leucine zipper kinase) | 0.561 | 1 |
| AMER1 (APC membrane recruitment protein 1) | 0.561 | 1 |
| NEK1 (NIMA related kinase 1) | -0.0683 | 0.911 |
| GTF2H1 (general transcription factor IIH subunit 1) | -2.93 | 0.505 |
| PKMYT1 (protein kinase, membrane associated tyrosine/threonine 1) | 0.561 | 1 |
| PFKFB1 (6-phosphofructo-2-kinase/fructose-2,6-biphosphatase 1) | -2.89 | 0.511 |
| BPTF (bromodomain PHD finger transcription factor) | -0.718 | 0.818 |
| CDKL5 (cyclin dependent kinase like 5) | 0.527 | 0.995 |
| NEK7 (NIMA related kinase 7) | 0.561 | 1 |
| TWF1 (twinfilin actin binding protein 1) | 0.561 | 1 |
| GSK3A (glycogen synthase kinase 3 alpha) | 0.561 | 1 |
| ROCK1 (Rho associated coiled-coil containing protein kinase 1) | 0.561 | 1 |
| PAK1 (p21 (RAC1) activated kinase 1) | -1.25 | 0.743 |
| MAP3K20 (mitogen-activated protein kinase kinase kinase 20) | 0.561 | 1 |
| TTK (TTK protein kinase) | -0.0345 | 0.915 |
| CAMKK1 (calcium/calmodulin dependent protein kinase kinase 1) | -0.0798 | 0.909 |
| RPS6KA5 (ribosomal protein S6 kinase A5) | 0.561 | 1 |
| TAF1L (TATA-box binding protein associated factor 1 like) | -0.386 | 0.866 |
| PNCK (pregnancy up-regulated nonubiquitous CaM kinase) | 0.561 | 1 |
| TPK1 (thiamin pyrophosphokinase 1) | -0.268 | 0.882 |
| NEK3 (NIMA related kinase 3) | 0.217 | 0.951 |
| CLK1 (CDC like kinase 1) | 0.561 | 1 |
| DCK (deoxycytidine kinase) | -2.25 | 0.601 |
| EFNA5 (ephrin A5) | 0.561 | 1 |
| PGK2 (phosphoglycerate kinase 2) | 0.561 | 1 |
| EPHA10 (EPH receptor A10) | -1.8 | 0.666 |
| TSSK2 (testis specific serine kinase 2) | -2.13 | 0.618 |
| ACVR2B (activin A receptor type 2B) | 0.561 | 1 |
| PIK3R1 (phosphoinositide-3-kinase regulatory subunit 1) | 0.561 | 1 |
| FGFR4 (fibroblast growth factor receptor 4) | 0.561 | 1 |
| RPS6KA4 (ribosomal protein S6 kinase A4) | -0.0162 | 0.918 |
| AK1 (adenylate kinase 1) | 0.525 | 0.995 |
| RIOK2 (RIO kinase 2) | -0.681 | 0.824 |
| STK4 (serine/threonine kinase 4) | 0.561 | 1 |
| WEE1 (WEE1 G2 checkpoint kinase) | -3.04 (active) | 0.489 |
| TSSK4 (testis specific serine kinase 4) | 0.561 | 1 |
| SPEG (striated muscle enriched protein kinase) | 0.561 | 1 |
| SYK (spleen associated tyrosine kinase) | -3.99 (active) | 0.354 |
| PKIA (cAMP-dependent protein kinase inhibitor alpha) | -0.527 | 0.846 |
| KMT2B (lysine methyltransferase 2B) | 0.561 | 1 |
| CAMKK2 (calcium/calmodulin dependent protein kinase kinase 2) | -0.0484 | 0.913 |
| PIP5K1C (phosphatidylinositol-4-phosphate 5-kinase type 1 gamma) | 0.561 | 1 |
| PAPSS1 (3'-phosphoadenosine 5'-phosphosulfate synthase 1) | 0.561 | 1 |
| CAMK4 (calcium/calmodulin dependent protein kinase IV) | 0.561 | 1 |
| ADGRL2 (adhesion G protein-coupled receptor L2) | 0.405 | 0.978 |
| PDK1 (pyruvate dehydrogenase kinase 1) | 0.561 | 1 |
| SMAD2 (SMAD family member 2) | 0.115 | 0.937 |
| PRKD2 (protein kinase D2) | 0.561 | 1 |
| CASP8 (caspase 8) | 0.561 | 1 |
